# Measured values from PMC7819943, “Rice protein-binding microarrays: a tool to detect cis-acting elements near promoter regions in rice”.
# Amino acid sequences for entries named in this document (tags omitted).
# UniProt Q0JBA9, entry or part of it: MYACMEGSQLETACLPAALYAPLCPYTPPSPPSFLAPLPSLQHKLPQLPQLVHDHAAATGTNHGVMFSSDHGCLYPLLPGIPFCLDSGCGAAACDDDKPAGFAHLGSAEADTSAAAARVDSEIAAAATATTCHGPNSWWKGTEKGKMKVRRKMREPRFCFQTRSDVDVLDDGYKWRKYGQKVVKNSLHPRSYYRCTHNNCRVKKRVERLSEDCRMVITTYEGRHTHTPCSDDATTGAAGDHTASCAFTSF
# This is one part of the list.
# Molecular target: OsWRKY34 (Oryza sativa, UniProt Q0JBA9 1-250)
# Assay: protein-binding microarray (RPBM); PBS, 2% BSA, 51.3 ng/ul salmon testes DNA, 50 uM zinc acetate, 200 nM TF, 25 C, 1 h; high values mean tight binding
# Settings: protein: recombinant; tags: N-terminal polyhistidine and DsRed monomer fusion (pET32a); label: CyDye5-dUTP incorporated in the synthesized complementary strand; 3' TTTTT single-stranded linker to array surface; dsDNA, one strand shown
# Summary of the method: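 The binding signal is fluorescence intensity per array feature (arbitrary units). Readings came from an Axon 4000B scanner after a washed, 2% BSA-blocked, double-stranded custom Agilent array had been incubated for 1 h at 25 °C with 200 nM protein and 50 µM zinc acetate. The protein was a Ni–NTA-purified transcription factor fused N-terminally to polyhistidine and DsRed, expressed in E. coli BL21-CodonPlus.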
row,Sequence,binding signal
1,CGCGCTCACCGTCCTCTACCAGGACGCCGTCGGCGGCCTCCGGAGTCACCTAGTGCAG,8610 fluorescence intensity (a.u.)
2,TTCTTGTTTGCTTTCACATGGTTTCATGCTCTCAGGCTCGCGGAGTCACCTAGTGCAG,8400 fluorescence intensity (a.u.)
3,CATCTTGTTGGGCCACGTCGCAGGCCGTTTCGGGGCCATCCGGAGTCACCTAGTGCAG,8910 fluorescence intensity (a.u.)
4,CATTGCTCATTGTTTACTCCATCACGCCCGCCACCATGCACGGAGTCACCTAGTGCAG,8180 fluorescence intensity (a.u.)
5,GTTTCTTTTATTTCTTTTTCTTTGGATTTCTTTCCCCGAACGGAGTCACCTAGTGCAG,9150 fluorescence intensity (a.u.)
6,CACAAGACTTTCGCCAAATATCACCCCATCACCAAAATACCGGAGTCACCTAGTGCAG,8840 fluorescence intensity (a.u.)
7,CCCCTCCACCACCGTTAACCGCCACGCCGGTCCTCTATCTCGGAGTCACCTAGTGCAG,9820 fluorescence intensity (a.u.)
8,GCGACGCCACCGCCGCCCCACCGCCCCGACGCCCTATCCGCGGAGTCACCTAGTGCAG,8210 fluorescence intensity (a.u.)
9,TATCCTTATCTCACCTCGCTGCATTCGCTCACTCACACTCCGGAGTCACCTAGTGCAG,9880 fluorescence intensity (a.u.)
10,CTCTTTGCCCTGAGCACGTTGCTCCCGTTCTTCATAAGGACGGAGTCACCTAGTGCAG,8550 fluorescence intensity (a.u.)
11,GGCACTGTAGCAAGTACTTTTTTATTTTTTTTCTTGGACACGGAGTCACCTAGTGCAG,10300 fluorescence intensity (a.u.)
12,CCTTCTTATTCAACTCTGGATTTGCTTATTCAACAGAAGTCGGAGTCACCTAGTGCAG,10600 fluorescence intensity (a.u.)
13,TCGATGCTGCTGGATATCACATTCTATTCTATTGCAATCTCGGAGTCACCTAGTGCAG,9640 fluorescence intensity (a.u.)
14,GTCCGCGTCACCCGTCTCTCCTCGCCGCCGCCGCTCTTTGCGGAGTCACCTAGTGCAG,9050 fluorescence intensity (a.u.)
15,TTTTTCTCACATGTTTGACCATTCGTCTTATTCAAAAAATCGGAGTCACCTAGTGCAG,8040 fluorescence intensity (a.u.)
16,ATTCGTCAGTCACAACAGTTTCATTCGGTCCACCACCACACGGAGTCACCTAGTGCAG,8310 fluorescence intensity (a.u.)
17,CCGCCATTGCCACACCCCACCCAAGCTCACCTCACCTCGCCGGAGTCACCTAGTGCAG,8420 fluorescence intensity (a.u.)
18,ATGGCTGCTGCATGGTTGTTTGCATGGCCGTTGCAGTGTTCGGAGTCACCTAGTGCAG,9080 fluorescence intensity (a.u.)
19,CAGACTCCAACCTACTAAGTGCGTTGCTAGATGCCACGTTCGGAGTCACCTAGTGCAG,8200 fluorescence intensity (a.u.)
20,GTAGGATCAATCTTTGTGCATGCCTTCTGGGATCAGTACTCGGAGTCACCTAGTGCAG,8060 fluorescence intensity (a.u.)
21,ATTTCCTTTTCTTCCGTTTACTCGTCGCGGTCGCAGGGGCCGGAGTCACCTAGTGCAG,8080 fluorescence intensity (a.u.)

row,Sequence,binding signal
1,AGATGTAGTGGAAGTAATTTGGTGTTATAAATGTTGCTATCGGAGTCACCTAGTGCAG,8950 fluorescence intensity (a.u.)
2,TTGCACCATGGCTGTCGTCTCCTCCACCGTAATCTCGCCACGGAGTCACCTAGTGCAG,9620 fluorescence intensity (a.u.)
3,TCGCGGTCTAACCAGAATGCCATCCTGAATGTTCATTGTTCGGAGTCACCTAGTGCAG,8330 fluorescence intensity (a.u.)
4,GTGCAGACGTGCACACACAGTACAGTCTCCGCTTGTTACACGGAGTCACCTAGTGCAG,8090 fluorescence intensity (a.u.)
5,ACCCGCAACAGTCCAGTCCAGAGAGCCCCGAACTCCTCCACGGAGTCACCTAGTGCAG,8540 fluorescence intensity (a.u.)
6,CAGTCTCGTTAAGCAGTACTTTCTCCGTCCCAAAATATAACGGAGTCACCTAGTGCAG,8810 fluorescence intensity (a.u.)
7,GCGTGCACTTGCGGTCGAGCTTGGTCCATCATTTTTTTTTCGGAGTCACCTAGTGCAG,11600 fluorescence intensity (a.u.)
8,CTACATGTTTTCCTTCGCGCCAATTTACTTATATCATATGCGGAGTCACCTAGTGCAG,12100 fluorescence intensity (a.u.)
9,ACCTCTCCCTATTTTTCTTTCTTTTTTGCCATAAGACCATCGGAGTCACCTAGTGCAG,8430 fluorescence intensity (a.u.)
10,GCTTATAGCCTGTTATTGTACCTGCTCTTAGGTTCTGTTCCGGAGTCACCTAGTGCAG,9240 fluorescence intensity (a.u.)
11,TCTTGGTTGTTGGTGGTGGCTCAAAGATTGGGCTTTGACCCGGAGTCACCTAGTGCAG,8400 fluorescence intensity (a.u.)
12,TAATTGTTTAGTATTTTCTCTAACTTGTGCATTTGAATGTCGGAGTCACCTAGTGCAG,8070 fluorescence intensity (a.u.)
13,CATATCTCATCCCATCATCGGTCATATTCTCCTCAGCTTCCGGAGTCACCTAGTGCAG,14300 fluorescence intensity (a.u.)
14,AGCTGAATATCTCTGTTCAAGTGTTGACTAGCTACATATACGGAGTCACCTAGTGCAG,9050 fluorescence intensity (a.u.)
15,GAAACCACACCACATCAAACACAGAGCCTTATAATTTGCCCGGAGTCACCTAGTGCAG,8410 fluorescence intensity (a.u.)
16,GAGGGAGGTAATTCGTCCGGTTTGCATAGTTAGGGGTGAACGGAGTCACCTAGTGCAG,9340 fluorescence intensity (a.u.)
17,ACTTCGGTTCTTCCCTCTTCCCATTTCCGCGCGGCGCAACCGGAGTCACCTAGTGCAG,8460 fluorescence intensity (a.u.)
18,ACACGGTTACTTATACTACCCTCATTGATGGTTATTGCAACGGAGTCACCTAGTGCAG,9030 fluorescence intensity (a.u.)
19,CTGTAGATGTTGTTGACCTGACTTGATGTTGTGCTTGTTACGGAGTCACCTAGTGCAG,8420 fluorescence intensity (a.u.)
20,TGTATTCTAAAGTTCGTGTTATCTGTAACCCGCTGCTCTTCGGAGTCACCTAGTGCAG,8580 fluorescence intensity (a.u.)
21,GAAGCTTCGGGAGTGGTGGTGGGTTGCGGCCGTGCGGCTCCGGAGTCACCTAGTGCAG,10900 fluorescence intensity (a.u.)

row,Sequence,binding signal
1,CTTTTTAGCATATGTTTGACCGTTTGTCTTATTTAAAATACGGAGTCACCTAGTGCAG,9700 fluorescence intensity (a.u.)
2,CAGCATCCATGTCTCCATATAACTTGCAAGTACTTTAATCCGGAGTCACCTAGTGCAG,8080 fluorescence intensity (a.u.)
3,CACTGCTGAACATCTTGAATGATTTGTTTTCAGGGACCTTCGGAGTCACCTAGTGCAG,8870 fluorescence intensity (a.u.)
4,CTACTGTTTCTGTTTCTGTTTCTGTGCAAATCAAATTCAACGGAGTCACCTAGTGCAG,14300 fluorescence intensity (a.u.)
5,GGAGGGAGTAATAGTCAGTGATTGGCTGGGTGGATAGAATCGGAGTCACCTAGTGCAG,9120 fluorescence intensity (a.u.)
6,CTGGGTACTCGGTATTGTTCTTTATGCAAGCTTAGCTTTCCGGAGTCACCTAGTGCAG,8770 fluorescence intensity (a.u.)
7,CATCTTCACAGTCACACACCGAACGCGACAAGCAGACCGACGGAGTCACCTAGTGCAG,8750 fluorescence intensity (a.u.)
8,TATTATTCAGGTTTTTGGACACACTACTACCCCTTGTTTTCGGAGTCACCTAGTGCAG,11300 fluorescence intensity (a.u.)
9,CATCTCCTCCCGCTCCCGCTCGCTCGCGCCATTTTCCAGCCGGAGTCACCTAGTGCAG,8960 fluorescence intensity (a.u.)
10,CACCATATCATTCCAGATGTACTGTAATCATTCTCGGGTTCGGAGTCACCTAGTGCAG,8960 fluorescence intensity (a.u.)
11,CTGCCTAAACCCAGCTCCATCTCTCTAGTTCATTTTGTGACGGAGTCACCTAGTGCAG,9340 fluorescence intensity (a.u.)
12,GGTATTGAACCAATGTTTTGCCATACAGCTGATCCGAAAACGGAGTCACCTAGTGCAG,8370 fluorescence intensity (a.u.)
13,TTCTTCTAGAGGAGGAGGAGGCGGCGGGGCGGCGGGCGAGCGGAGTCACCTAGTGCAG,17300 fluorescence intensity (a.u.)
14,GATCCACCTTTACCGCAAGGATTCTACGGCAACGGATTCGCGGAGTCACCTAGTGCAG,8820 fluorescence intensity (a.u.)
15,GCCTATCCACAACATCGTCGCAGGCCTTCTTTTTCCCTCGCGGAGTCACCTAGTGCAG,8320 fluorescence intensity (a.u.)
16,GGGATACTTGGTTAATTATAGTCAGATCAATTTTATTTTCCGGAGTCACCTAGTGCAG,9550 fluorescence intensity (a.u.)
17,TGTGCATTTATTACGCCTATATTTTGTTCTTTTTTTTTTCCGGAGTCACCTAGTGCAG,12900 fluorescence intensity (a.u.)
18,AATGCTGTGAACACCTGGTTGGTTGGGTGTTTTTGCTTCTCGGAGTCACCTAGTGCAG,9590 fluorescence intensity (a.u.)
19,GTCCATTGGCAAATTACCACGTTTATGAAGTGTTTTCCTCCGGAGTCACCTAGTGCAG,9210 fluorescence intensity (a.u.)
20,AACTTCGAAGAAATTTCGCAAACGGTTCACACTCCACGAACGGAGTCACCTAGTGCAG,8230 fluorescence intensity (a.u.)
21,TGCATCATTGACTCATCATCCATGCATCCAATTCCATTTACGGAGTCACCTAGTGCAG,10500 fluorescence intensity (a.u.)

# A few values from the results shown.
# Entry for CTGCCTAAACCCAGCTCCATCTCTCTAGTTCATTTTGTGACGGAGTCACCTAGTGCAG under binding signal: 9340 fluorescence intensity (a.u.)
# Entry for GGAGGGAGTAATAGTCAGTGATTGGCTGGGTGGATAGAATCGGAGTCACCTAGTGCAG under binding signal: 9120 fluorescence intensity (a.u.)

# Part of the list above, reformatted.
row | Sequence | binding signal
8 | GCGACGCCACCGCCGCCCCACCGCCCCGACGCCCTATCCGCGGAGTCACCTAGTGCAG | 8210 fluorescence intensity (a.u.)
18 | ACACGGTTACTTATACTACCCTCATTGATGGTTATTGCAACGGAGTCACCTAGTGCAG | 9030 fluorescence intensity (a.u.)
20 | AACTTCGAAGAAATTTCGCAAACGGTTCACACTCCACGAACGGAGTCACCTAGTGCAG | 8230 fluorescence intensity (a.u.)
21 | TGCATCATTGACTCATCATCCATGCATCCAATTCCATTTACGGAGTCACCTAGTGCAG | 10500 fluorescence intensity (a.u.)

# Going on with the list.

row,Sequence,binding signal
1,TTGTCAAATGCTGTTGTGCCAGAAGATGTACCGTTCAGTCCGGAGTCACCTAGTGCAG,8490 fluorescence intensity (a.u.)
2,ATCTCAAACCCCACACATTCCCCACAATCCGCTCGCCATGCGGAGTCACCTAGTGCAG,8540 fluorescence intensity (a.u.)
3,GCCTCCACCAATCTCCTGCAGCCCTATTGTTGCCTCCTTGCGGAGTCACCTAGTGCAG,13900 fluorescence intensity (a.u.)
4,TGCAGAACCTCTCTCCCTTCTTGGTTCTTCTTCTCATCTCCGGAGTCACCTAGTGCAG,9490 fluorescence intensity (a.u.)
5,GGCTACTCAGAAAGTCTTACCACGCAAAAGATTAATCATACGGAGTCACCTAGTGCAG,8100 fluorescence intensity (a.u.)
6,TTTAATTTGTTTTTTTCGTTGTAACATGTAGAAATTAAATCGGAGTCACCTAGTGCAG,8750 fluorescence intensity (a.u.)
7,CTCTTTTCTTTTGCTAGTCATACGTGCATATATAACCAAACGGAGTCACCTAGTGCAG,8120 fluorescence intensity (a.u.)
8,TCGCAGCGCAGGCCGCTGCTTCTTCTTCTTCTTCCTTCCACGGAGTCACCTAGTGCAG,8310 fluorescence intensity (a.u.)
9,ACCTCCCACGGATCGCTCCATTTTCACCTCCGCGCCCAAACGGAGTCACCTAGTGCAG,9570 fluorescence intensity (a.u.)
10,TTATCTGTTTGGTCATTTTCTTTGCATGTGGTTTGGTTTTCGGAGTCACCTAGTGCAG,14100 fluorescence intensity (a.u.)
11,CATACGCTCCTTTATTTGTTCACACTTATACATCAATAAGCGGAGTCACCTAGTGCAG,8560 fluorescence intensity (a.u.)
12,ATGTTTGACTCTACATTCTCTCTCTCTTCTTTTTGTTTAACGGAGTCACCTAGTGCAG,11700 fluorescence intensity (a.u.)
13,TCGGCCTGCTCCCGCCCGTCGCCGTCCACTCCTCAACCGCCGGAGTCACCTAGTGCAG,11800 fluorescence intensity (a.u.)
14,GGTTGCTGACAGGTGGTCCCGCGGGGTGGATGGGGCCCACCGGAGTCACCTAGTGCAG,9040 fluorescence intensity (a.u.)
15,CTCTCTTTTTTTTTTTGTTGTTGAACTAGTTGTGTGCATTCGGAGTCACCTAGTGCAG,9300 fluorescence intensity (a.u.)
16,TCGTCATCAGTTCATCGCTCGTGTCTGCTCTGTTTAGACACGGAGTCACCTAGTGCAG,8310 fluorescence intensity (a.u.)
17,ACATTGGGTTGGAGTGGATTATTTTTTTCCTTTGTTTTCCCGGAGTCACCTAGTGCAG,14200 fluorescence intensity (a.u.)
18,TTAGTTCGCGAAAAGAAAATTTTTAGGTGTCACATTTTTTCGGAGTCACCTAGTGCAG,9420 fluorescence intensity (a.u.)
19,GCTAACATGGCTCGTTGACCCACCCAACCTGCTGACTCATCGGAGTCACCTAGTGCAG,10600 fluorescence intensity (a.u.)
20,CACTCAACCTAACTGTTGAACGGTCCTGTTCTGGCCAACGCGGAGTCACCTAGTGCAG,8890 fluorescence intensity (a.u.)
21,CTATTACCTGAACATCGCGCATTTGCCATCTAATGCACCACGGAGTCACCTAGTGCAG,8160 fluorescence intensity (a.u.)
